From article PMC7227341
These are yes or no findings as the source states them, for the method shown. Binding seen in cells or lysates may run through a third protein. Some binding calls cover weakened binding; strength is not graded here. Where a sequence is shown, tags or fusion partners need not be part of it.

Sequences of proteins named here, by UniProt entry; tags and fusion partners are left off.
UniProt O15392: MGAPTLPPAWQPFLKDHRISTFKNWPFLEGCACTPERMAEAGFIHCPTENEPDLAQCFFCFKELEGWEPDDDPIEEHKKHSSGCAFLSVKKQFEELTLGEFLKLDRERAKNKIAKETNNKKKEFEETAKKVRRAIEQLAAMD

Target: Flag-Survivin (UniProt O15392)
Assay: co-IP; SCC25 cells transfected with HA-Fbxl7 and Flag-Survivin plasmids, treated with xanthohumol for 24 h or not; whole-cell lysate subjected to Co-IP and IB; which protein was precipitated is not told

B1: HA-Fbxl7 (protein, UniProt Q9UJT9 1-491)
chain: MGANNGKQYGSEGKGSSSISSDVSSSTDHTPTKAQKNVATSEDSDLSMRTLSTPSPALICPPNLPGFQNGRGSSTSSSSITGETVAMVHSPPPTRLTHPLIRLASRPQKEQASIDRLPDHSMVQIFSFLPTNQLCRCARVCRRWYNLAWDPRLWRTIRLTGETINVDRALKVLTRRLCQDTPNVCLMLETVTVSGCRRLTDRGLYTIAQCCPELRRLEVSGCYNISNEAVFDVVSLCPNLEHLDVSGCSKVTCISLTREASIKLSPLHGKQISIRYLDMTDCFVLEDEGLHTIAAHCTQLTHLYLRRCVRLTDEGLRYLVIYCASIKELSVSDCRFVSDFGLREIAKLESRLRYLSIAHCGRVTDVGIRYVAKYCSKLRYLNARGCEGITDHGVEYLAKNCTKLKSLDIGKCPLVSDTGLECLALNCFNLKRLSLKSCESITGQGLQIVAANCFDLQTLNVQDCEVSVEALRFVKRHCKRCVIEHTNPAFF
binding: binds
